Measurements: the supplement of paper PMC10849652
The other results are listed elsewhere or left out.

Amino acid sequences for entries named in this document (tags omitted). A change or cut given only in a name is not applied to a line headed by its entry.
UniProt O75844: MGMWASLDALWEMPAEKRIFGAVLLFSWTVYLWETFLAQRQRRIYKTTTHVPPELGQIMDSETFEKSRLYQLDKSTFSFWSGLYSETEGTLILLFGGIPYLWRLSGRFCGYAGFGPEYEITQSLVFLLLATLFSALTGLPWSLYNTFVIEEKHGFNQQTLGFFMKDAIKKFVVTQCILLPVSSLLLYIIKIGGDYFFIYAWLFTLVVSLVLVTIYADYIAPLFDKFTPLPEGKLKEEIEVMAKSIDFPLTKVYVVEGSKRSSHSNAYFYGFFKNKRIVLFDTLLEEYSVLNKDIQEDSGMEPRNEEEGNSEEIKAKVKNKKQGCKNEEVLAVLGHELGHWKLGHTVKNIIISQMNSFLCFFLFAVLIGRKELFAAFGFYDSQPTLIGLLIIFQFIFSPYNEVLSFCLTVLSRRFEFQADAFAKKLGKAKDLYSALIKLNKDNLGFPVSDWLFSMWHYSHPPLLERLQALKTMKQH
UniProt Q8NF64: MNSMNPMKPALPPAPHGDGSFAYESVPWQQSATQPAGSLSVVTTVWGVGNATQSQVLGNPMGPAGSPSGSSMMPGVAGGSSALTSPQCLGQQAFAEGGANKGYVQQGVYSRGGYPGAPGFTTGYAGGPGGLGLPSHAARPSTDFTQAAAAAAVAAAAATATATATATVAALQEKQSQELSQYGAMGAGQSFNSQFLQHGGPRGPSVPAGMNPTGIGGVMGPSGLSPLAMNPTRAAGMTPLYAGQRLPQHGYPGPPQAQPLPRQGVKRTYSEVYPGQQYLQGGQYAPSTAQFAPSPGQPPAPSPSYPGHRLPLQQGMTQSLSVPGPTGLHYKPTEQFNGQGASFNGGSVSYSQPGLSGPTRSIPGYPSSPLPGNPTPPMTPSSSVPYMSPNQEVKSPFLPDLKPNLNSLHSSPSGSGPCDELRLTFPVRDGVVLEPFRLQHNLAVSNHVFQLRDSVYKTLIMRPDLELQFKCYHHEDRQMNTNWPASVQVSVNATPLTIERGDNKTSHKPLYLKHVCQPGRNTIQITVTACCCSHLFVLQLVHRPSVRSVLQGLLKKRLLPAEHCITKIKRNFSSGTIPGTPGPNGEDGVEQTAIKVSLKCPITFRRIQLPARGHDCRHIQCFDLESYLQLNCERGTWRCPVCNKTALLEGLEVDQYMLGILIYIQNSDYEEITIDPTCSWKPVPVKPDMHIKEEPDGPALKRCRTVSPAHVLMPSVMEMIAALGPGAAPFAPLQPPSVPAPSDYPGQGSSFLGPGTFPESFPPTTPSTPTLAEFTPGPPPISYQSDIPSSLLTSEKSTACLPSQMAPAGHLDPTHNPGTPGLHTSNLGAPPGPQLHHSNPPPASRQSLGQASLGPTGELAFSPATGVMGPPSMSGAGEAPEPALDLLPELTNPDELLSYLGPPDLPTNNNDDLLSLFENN
UniProt Q9NUE0: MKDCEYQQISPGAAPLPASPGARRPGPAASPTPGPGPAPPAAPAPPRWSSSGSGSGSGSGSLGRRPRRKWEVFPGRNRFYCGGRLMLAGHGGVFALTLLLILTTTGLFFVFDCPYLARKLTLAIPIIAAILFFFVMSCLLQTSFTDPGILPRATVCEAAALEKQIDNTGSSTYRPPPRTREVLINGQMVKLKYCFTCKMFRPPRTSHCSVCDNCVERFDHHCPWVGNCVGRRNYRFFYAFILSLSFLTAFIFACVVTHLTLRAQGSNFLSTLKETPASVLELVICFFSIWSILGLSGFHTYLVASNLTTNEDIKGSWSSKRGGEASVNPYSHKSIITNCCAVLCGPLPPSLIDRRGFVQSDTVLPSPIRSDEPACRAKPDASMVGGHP
UniProt P62258: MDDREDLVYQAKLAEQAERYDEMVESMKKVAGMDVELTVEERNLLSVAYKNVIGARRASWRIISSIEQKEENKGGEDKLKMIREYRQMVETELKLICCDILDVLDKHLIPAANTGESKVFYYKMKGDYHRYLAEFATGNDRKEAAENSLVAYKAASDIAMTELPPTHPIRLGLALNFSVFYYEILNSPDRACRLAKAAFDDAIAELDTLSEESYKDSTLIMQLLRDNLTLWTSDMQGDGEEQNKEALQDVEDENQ
UniProt Q8IWT0: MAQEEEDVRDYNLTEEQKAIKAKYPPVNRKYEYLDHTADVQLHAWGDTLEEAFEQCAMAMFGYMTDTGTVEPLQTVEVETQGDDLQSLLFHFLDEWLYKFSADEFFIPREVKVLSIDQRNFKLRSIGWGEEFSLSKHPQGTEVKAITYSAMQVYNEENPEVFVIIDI
UniProt Q9Y2Z4: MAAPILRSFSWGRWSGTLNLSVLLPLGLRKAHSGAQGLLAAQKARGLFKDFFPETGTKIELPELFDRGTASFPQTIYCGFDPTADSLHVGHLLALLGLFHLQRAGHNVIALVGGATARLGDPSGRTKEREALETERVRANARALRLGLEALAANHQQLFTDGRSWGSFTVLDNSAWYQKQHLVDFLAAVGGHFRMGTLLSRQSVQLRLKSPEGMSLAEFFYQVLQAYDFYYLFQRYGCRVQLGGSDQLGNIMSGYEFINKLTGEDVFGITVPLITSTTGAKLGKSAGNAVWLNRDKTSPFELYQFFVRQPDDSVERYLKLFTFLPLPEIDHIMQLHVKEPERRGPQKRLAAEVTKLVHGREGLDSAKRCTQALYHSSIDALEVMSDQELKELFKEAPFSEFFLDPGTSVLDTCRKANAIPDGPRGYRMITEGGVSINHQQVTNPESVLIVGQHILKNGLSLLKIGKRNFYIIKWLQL
UniProt Q9C0B5: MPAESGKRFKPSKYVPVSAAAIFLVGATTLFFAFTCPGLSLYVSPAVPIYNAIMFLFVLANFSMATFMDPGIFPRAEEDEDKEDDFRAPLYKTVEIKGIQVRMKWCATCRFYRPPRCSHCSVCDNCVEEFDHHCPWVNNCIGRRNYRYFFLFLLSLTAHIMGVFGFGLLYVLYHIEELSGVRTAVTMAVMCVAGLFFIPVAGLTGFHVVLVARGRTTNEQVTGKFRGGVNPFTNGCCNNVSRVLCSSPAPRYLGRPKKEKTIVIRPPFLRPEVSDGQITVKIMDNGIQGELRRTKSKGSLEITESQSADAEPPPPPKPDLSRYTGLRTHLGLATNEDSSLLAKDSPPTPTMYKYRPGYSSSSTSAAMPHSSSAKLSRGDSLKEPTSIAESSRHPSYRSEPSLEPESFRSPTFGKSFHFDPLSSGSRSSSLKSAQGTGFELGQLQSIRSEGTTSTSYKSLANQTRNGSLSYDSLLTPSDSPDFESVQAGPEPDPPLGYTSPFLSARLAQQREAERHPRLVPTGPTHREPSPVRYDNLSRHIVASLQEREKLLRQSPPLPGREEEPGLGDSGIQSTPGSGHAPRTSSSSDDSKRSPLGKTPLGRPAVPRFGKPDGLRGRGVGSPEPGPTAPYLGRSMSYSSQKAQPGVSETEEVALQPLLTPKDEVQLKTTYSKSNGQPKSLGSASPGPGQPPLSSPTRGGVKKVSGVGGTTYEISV
UniProt P17028: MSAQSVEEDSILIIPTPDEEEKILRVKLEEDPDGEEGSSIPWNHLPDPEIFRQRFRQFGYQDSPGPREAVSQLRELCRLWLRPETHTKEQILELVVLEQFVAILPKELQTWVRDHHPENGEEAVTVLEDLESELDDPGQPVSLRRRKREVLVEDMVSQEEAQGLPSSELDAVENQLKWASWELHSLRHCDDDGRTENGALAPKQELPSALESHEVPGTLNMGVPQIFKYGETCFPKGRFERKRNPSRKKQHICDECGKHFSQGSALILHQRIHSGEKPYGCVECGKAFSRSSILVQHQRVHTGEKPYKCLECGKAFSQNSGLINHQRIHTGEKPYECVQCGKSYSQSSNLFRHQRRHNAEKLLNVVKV
UniProt Q96GY0: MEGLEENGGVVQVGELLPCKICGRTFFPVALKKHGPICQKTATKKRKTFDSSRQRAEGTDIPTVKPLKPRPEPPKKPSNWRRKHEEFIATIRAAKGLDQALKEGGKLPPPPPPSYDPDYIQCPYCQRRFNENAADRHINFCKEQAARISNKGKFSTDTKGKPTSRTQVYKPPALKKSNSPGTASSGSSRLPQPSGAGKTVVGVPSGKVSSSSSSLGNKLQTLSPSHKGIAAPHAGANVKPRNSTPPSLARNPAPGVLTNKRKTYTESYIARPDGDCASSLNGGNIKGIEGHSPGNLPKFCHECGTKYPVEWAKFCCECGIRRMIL
UniProt O14980, whole entry, looked up: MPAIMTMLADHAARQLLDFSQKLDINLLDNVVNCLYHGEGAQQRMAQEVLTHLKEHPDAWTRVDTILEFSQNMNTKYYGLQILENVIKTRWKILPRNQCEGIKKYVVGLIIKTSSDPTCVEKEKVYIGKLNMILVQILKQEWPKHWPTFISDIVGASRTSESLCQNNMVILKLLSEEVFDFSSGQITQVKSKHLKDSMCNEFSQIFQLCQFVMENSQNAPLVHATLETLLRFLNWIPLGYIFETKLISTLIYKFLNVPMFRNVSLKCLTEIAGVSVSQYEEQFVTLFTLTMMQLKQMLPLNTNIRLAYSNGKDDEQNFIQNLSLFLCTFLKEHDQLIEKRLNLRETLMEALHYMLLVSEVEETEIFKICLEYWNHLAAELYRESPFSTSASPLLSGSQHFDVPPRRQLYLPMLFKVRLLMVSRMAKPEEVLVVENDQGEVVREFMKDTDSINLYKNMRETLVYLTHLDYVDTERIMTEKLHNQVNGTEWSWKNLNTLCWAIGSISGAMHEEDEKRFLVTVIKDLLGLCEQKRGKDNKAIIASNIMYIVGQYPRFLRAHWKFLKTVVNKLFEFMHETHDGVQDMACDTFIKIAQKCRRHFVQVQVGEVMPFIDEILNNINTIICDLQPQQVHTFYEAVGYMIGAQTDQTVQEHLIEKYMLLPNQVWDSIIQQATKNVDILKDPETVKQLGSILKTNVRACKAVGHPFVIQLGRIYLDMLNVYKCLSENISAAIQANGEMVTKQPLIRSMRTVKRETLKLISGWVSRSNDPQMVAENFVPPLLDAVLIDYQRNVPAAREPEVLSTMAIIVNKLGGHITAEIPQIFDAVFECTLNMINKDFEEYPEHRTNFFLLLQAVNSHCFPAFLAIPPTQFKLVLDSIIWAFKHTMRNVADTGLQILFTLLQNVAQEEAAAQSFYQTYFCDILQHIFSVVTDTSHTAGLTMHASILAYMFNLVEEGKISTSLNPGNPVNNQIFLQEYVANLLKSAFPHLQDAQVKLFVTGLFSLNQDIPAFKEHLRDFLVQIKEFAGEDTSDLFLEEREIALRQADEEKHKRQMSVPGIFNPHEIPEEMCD
UniProt O95619, whole entry, looked up: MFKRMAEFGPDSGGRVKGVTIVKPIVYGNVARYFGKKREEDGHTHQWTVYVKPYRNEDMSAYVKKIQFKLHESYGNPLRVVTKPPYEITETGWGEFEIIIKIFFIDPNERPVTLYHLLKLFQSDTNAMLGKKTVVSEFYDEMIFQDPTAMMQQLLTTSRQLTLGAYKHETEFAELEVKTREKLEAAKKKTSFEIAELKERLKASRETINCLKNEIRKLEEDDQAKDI
UniProt Q86WB0: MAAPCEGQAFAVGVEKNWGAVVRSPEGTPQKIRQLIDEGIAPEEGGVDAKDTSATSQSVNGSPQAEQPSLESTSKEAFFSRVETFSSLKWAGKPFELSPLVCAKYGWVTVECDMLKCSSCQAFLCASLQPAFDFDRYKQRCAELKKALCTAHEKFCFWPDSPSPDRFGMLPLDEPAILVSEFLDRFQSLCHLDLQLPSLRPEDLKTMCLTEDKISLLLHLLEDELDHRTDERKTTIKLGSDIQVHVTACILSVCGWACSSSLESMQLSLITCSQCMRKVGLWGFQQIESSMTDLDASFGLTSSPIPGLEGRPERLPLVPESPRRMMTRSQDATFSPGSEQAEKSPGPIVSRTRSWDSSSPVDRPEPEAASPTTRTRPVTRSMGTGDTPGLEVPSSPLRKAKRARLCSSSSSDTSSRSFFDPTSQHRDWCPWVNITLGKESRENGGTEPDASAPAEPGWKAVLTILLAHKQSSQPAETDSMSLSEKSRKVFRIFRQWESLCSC
UniProt Q8NBI6: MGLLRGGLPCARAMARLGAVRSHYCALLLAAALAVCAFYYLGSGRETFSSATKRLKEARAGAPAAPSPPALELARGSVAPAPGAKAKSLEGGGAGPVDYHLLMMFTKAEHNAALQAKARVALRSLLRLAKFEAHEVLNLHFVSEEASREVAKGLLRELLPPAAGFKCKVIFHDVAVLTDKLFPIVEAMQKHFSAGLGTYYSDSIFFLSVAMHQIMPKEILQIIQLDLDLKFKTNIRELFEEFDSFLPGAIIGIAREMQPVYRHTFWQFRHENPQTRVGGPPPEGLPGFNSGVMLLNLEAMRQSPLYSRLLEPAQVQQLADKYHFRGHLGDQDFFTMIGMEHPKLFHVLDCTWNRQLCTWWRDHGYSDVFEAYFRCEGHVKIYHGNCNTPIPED
UniProt Q9NYG2: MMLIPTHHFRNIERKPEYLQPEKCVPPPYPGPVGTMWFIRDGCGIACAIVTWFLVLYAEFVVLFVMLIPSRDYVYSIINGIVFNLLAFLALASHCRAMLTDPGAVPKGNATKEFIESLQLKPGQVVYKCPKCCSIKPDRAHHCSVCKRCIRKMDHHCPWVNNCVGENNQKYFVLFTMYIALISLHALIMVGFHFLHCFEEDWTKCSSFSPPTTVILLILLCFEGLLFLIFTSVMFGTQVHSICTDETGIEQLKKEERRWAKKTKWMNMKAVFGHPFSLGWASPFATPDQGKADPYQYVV

compound: C1CCN(C1)C(=O)NC2=CC=CC(=C2)NC3=NC=C(C(=N3)NCCC4=CN=CN4)Br; assay: log2 fold change, soluble protein after heating vs DMSO (PISA); higher = thermal stabilisation; K562 cells, 10 uM, 30 min; active = over 0.2 and 3.5 SD of the protein, either way, in both replicates (recomputed)
Summary of the method: (§1)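 K562 cells at 2×10^6 cells/mL were given 10 μM compound for 30 min. Aliquots then went through 3 min of heating across 48°C-58°C, were pooled, and were extracted in PBS with 0.5% NP-40 at 4°C, and the supernatant after 21,000xg for 90 min was quantified by TMTpro 16plex LC-MS/MS with channel sums equalised. Thermal stability relative to control samples, from duplicates, is given as log2 fold change.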

log2 fold change, inactive:
ZDHHC14 (UniProt Q8IZN3) 0.058
ZC3H18 (UniProt Q86VM9) -0.126
ZC3H8 (UniProt Q8N5P1) 0.038
YIPF4 (UniProt Q9BSR8) -0.033
YDJC (UniProt A8MPS7) -0.009
ZMPSTE24 (UniProt O75844) 0
ZFYVE27 isoform 2 (UniProt Q5T4F4) -0.217
ZBTB43 (UniProt O43298) -0.052
ZMIZ2 (UniProt Q8NF64) 0.055
ZDHHC18 (UniProt Q9NUE0) -0.142
ZER1 (UniProt Q7Z7L7) -0.015
YY1 (UniProt P25490) -0.065
YWHAE (UniProt P62258) 0.033
YES1 (UniProt P07947) -0.139
ZBTB8OS (UniProt Q8IWT0) 0.063
YJU2 (UniProt Q9BW85) -0.036
YLPM1 (UniProt P49750) -0.083
YBX3 (UniProt P16989) 0.099
ZFYVE19 (UniProt Q96K21) 0.03
YARS2 (UniProt Q9Y2Z4) -0.093
XPO5 (UniProt Q9HAV4) -0.024
ZDHHC17 (UniProt Q8IUH5) 0.011
ZC3H14 (UniProt Q6PJT7) -0.052
YKT6 (UniProt O15498) 0.019
ZDHHC5 (UniProt Q9C0B5) -0.076
ZNF239 (UniProt Q16600) 0.001
ZC3H15 (UniProt Q8WU90) -0.016
YAE1 (UniProt Q9NRH1) -0.084
ZNF24 (UniProt P17028) -0.052
ZFAND6 (UniProt Q6FIF0) -0.058
ZC2HC1A (UniProt Q96GY0) -0.2
YWHAZ (UniProt P63104) 0.011
ZCCHC3 (UniProt Q9NUD5) 0.02
XPO1 (UniProt O14980) 0.002
YEATS4 (UniProt O95619) -0.011
ZC3HC1 (UniProt Q86WB0) -0.078
XXYLT1 (UniProt Q8NBI6) -0.005
ZDHHC3 isoform 2 (UniProt Q9NYG2) -0.03
ZBTB21 (UniProt Q9ULJ3) 0.107

compound: C1CN(CCC1(CC2=CC=C(C=C2)Cl)N)C3=NC=NC4=C3C=CN4; assay: as above
Summary of the method: as §1

log2 fold change, inactive:
ZDHHC14 (UniProt Q8IZN3) -0.1
ZC3H18 (UniProt Q86VM9) -0.124
ZC3H8 (UniProt Q8N5P1) -0.01
YIPF4 (UniProt Q9BSR8) -0.016
YDJC (UniProt A8MPS7) -0.044
ZMPSTE24 (UniProt O75844) 0.06
ZFYVE27 isoform 2 (UniProt Q5T4F4) 0.117
ZBTB43 (UniProt O43298) -0.053
ZMIZ2 (UniProt Q8NF64) 0.184
ZDHHC18 (UniProt Q9NUE0) -0.062
ZER1 (UniProt Q7Z7L7) 0.043
YY1 (UniProt P25490) 0.066
YWHAE (UniProt P62258) -0.009
YES1 (UniProt P07947) -0.059
ZBTB8OS (UniProt Q8IWT0) -0.086
YJU2 (UniProt Q9BW85) 0.033
YLPM1 (UniProt P49750) 0.102
YBX3 (UniProt P16989) -0.108
ZFYVE19 (UniProt Q96K21) 0.047
YARS2 (UniProt Q9Y2Z4) 0.03
XPO5 (UniProt Q9HAV4) -0.001
ZDHHC17 (UniProt Q8IUH5) 0.022
ZC3H14 (UniProt Q6PJT7) 0.034
YKT6 (UniProt O15498) 0.014
ZDHHC5 (UniProt Q9C0B5) 0.071
ZNF239 (UniProt Q16600) 0.117
ZC3H15 (UniProt Q8WU90) -0.055
YAE1 (UniProt Q9NRH1) -0.022
ZNF24 (UniProt P17028) -0.072
ZFAND6 (UniProt Q6FIF0) 0.038
ZC2HC1A (UniProt Q96GY0) 0.066
YWHAZ (UniProt P63104) 0.059
ZCCHC3 (UniProt Q9NUD5) -0.127
XPO1 (UniProt O14980) -0.027
YEATS4 (UniProt O95619) 0.058
ZC3HC1 (UniProt Q86WB0) 0.019
XXYLT1 (UniProt Q8NBI6) -0.001
ZDHHC3 isoform 2 (UniProt Q9NYG2) -0.023
ZBTB21 (UniProt Q9ULJ3) 0.024
